Measurements as given in PubChem BioAssay AID248 (DTP/NCI, 2004).
The list shows only some results of the screen, not a fair sample: it gathers tests that were run many times, whatever their T/C, doses with no T/C, and many T/C values between a quarter and a half above the control. Further doses and runs are listed elsewhere. T/C is the treated group as % of the vehicle group. Some doses have a count of surviving animals in place of a T/C: the source files T/C as zero there, which appears to mark a toxic dose or a test without result, not a measured value. Some doses without a T/C left all or most animals alive at the check, yet need not have been tolerated: the source hardly ever lists a survival T/C far under the control, and the zero likely stands for such cases as well. Counts of survivors are from the toxicity check (mostly the fifth day) where no day follows; animals may have died later. Schedule codes are those of the source, read here as Q, the interval in days (D) or hours (H), X, the number of doses. Some schedule codes hold Z or #, which are not explained here. Some entries were tested several times; the results are listed from low to high. Where survival is the endpoint, the PubChem record calls one and a half times the control and up active, and a quarter to a half above the control has no call in these data; cut-offs in other NCI protocols can differ. Some T/C values are followed by the survivors on the day toxicity was checked, most often the fifth; where none is given, no animal had died by that day. Signs of the kind (2×) count equal records among those shown.

Tested on: L1210 leukemia ip in BDF1 mice, survival T/C
Assay: NCI In Vivo Anticancer Drug Screen. Data for tumor model L1210 Leukemia (intraperitoneal) in B6D2F1 (BDF1) mice
Settings: higher T/C = longer survival
[1] = T/C endpoint: mean survival time, dose: 4.0 mg/kg/injection, schedule: Q01DX Z (ip), vehicle: saline

Nc1nc(=S)c2[nH]cnc2[nH]1
T/C (T/C endpoint: mean survival time, dose: 3.7 mg/kg/injection, schedule: Q01DX Z (ip), vehicle: carboxymethylcellulose (CMC)): 136 % of control
T/C (T/C endpoint: mean survival time, dose: 4.0 mg/kg/injection, schedule: Q01DX006 (iv), vehicle: saline): 130 % of control
T/C (T/C endpoint: mean survival time, dose: 4.0 mg/kg/injection, schedule: Q01DX Z (ip), vehicle: carboxymethylcellulose (CMC)): 128 % of control
T/C [1]: 128 and 146 % of control
survivor count [1]: 1 of 6
T/C (T/C endpoint: mean survival time, dose: 4.0 mg/kg/injection, schedule: Q01DX Z (sc), vehicle: saline): 142 % of control
T/C (T/C endpoint: mean survival time, dose: 4.9 mg/kg/injection, schedule: Q01DX009 (ip), vehicle: alkali diluted with saline): 142 % of control
T/C (T/C endpoint: mean survival time, dose: 5.3 mg/kg/injection, schedule: Q04DX004 (ip), vehicle: alkali diluted with saline): 148 % of control
T/C (T/C endpoint: mean survival time, dose: 5.3 mg/kg/injection, schedule: Q04DX012 (ip), vehicle: alkali diluted with saline): 136 % of control
T/C (T/C endpoint: mean survival time, dose: 6.0 mg/kg/injection, schedule: Q03DX006 (ip), vehicle: saline): 135 % of control
T/C (T/C endpoint: mean survival time, dose: 7.0 mg/kg/injection, schedule: Q04DX002 (ip), vehicle: alkali diluted with saline): 134 % of control
T/C (T/C endpoint: mean survival time, dose: 7.4 mg/kg/injection, schedule: Q01DX009 (ip), vehicle: alkali diluted with saline): 144 % of control
T/C (T/C endpoint: mean survival time, dose: 8.0 mg/kg/injection, schedule: Q01DX006 (iv), vehicle: saline): 134 % of control
survivor count (T/C endpoint: mean survival time, dose: 8.0 mg/kg/injection, schedule: Q01DX Z (sc), vehicle: saline): 5 of 6
T/C (T/C endpoint: mean survival time, dose: 8.0 mg/kg/injection, schedule: Q04DX006 (ip), vehicle: alkali diluted with saline): 136 % of control
T/C (T/C endpoint: mean survival time, dose: 8.0 mg/kg/injection, schedule: Q04DX008 (ip), vehicle: alkali diluted with saline): 138 % of control
T/C (T/C endpoint: mean survival time, dose: 8.0 mg/kg/injection, schedule: Q04DX010 (ip), vehicle: alkali diluted with saline): 140 % of control
T/C (T/C endpoint: mean survival time, dose: 8.0 mg/kg/injection, schedule: Q04DX012 (ip), vehicle: alkali diluted with saline): 139 % of control
T/C (T/C endpoint: mean survival time, dose: 8.8 mg/kg/injection, schedule: Q04DX003 (ip), vehicle: alkali diluted with saline): 142 % of control
survivor count (T/C endpoint: mean survival time, dose: 12.0 mg/kg/injection, schedule: Q01DX Z (ip), vehicle: carboxymethylcellulose (CMC)): 6 of 6
T/C (T/C endpoint: mean survival time, dose: 12.0 mg/kg/injection, schedule: Q03DX006 (ip), vehicle: saline): 127 and 146 % of control [5 of 6 alive]
T/C (T/C endpoint: mean survival time, dose: 12.0 mg/kg/injection, schedule: Q04DX004 (ip), vehicle: alkali diluted with saline): 135 % of control
T/C (T/C endpoint: mean survival time, dose: 12.0 mg/kg/injection, schedule: Q04DX008 (ip), vehicle: alkali diluted with saline): 141 % of control
T/C (T/C endpoint: mean survival time, dose: 12.0 mg/kg/injection, schedule: Q04DX010 (ip), vehicle: alkali diluted with saline): 136 % of control
T/C (T/C endpoint: mean survival time, dose: 12.0 mg/kg/injection, schedule: Q04DX012 (ip), vehicle: alkali diluted with saline): 143 % of control
T/C (T/C endpoint: mean survival time, dose: 12.0 mg/kg/injection, schedule: Q07DX003 (ip), vehicle: saline): 149 % of control
T/C (T/C endpoint: mean survival time, dose: 12.0 mg/kg/injection, schedule: Q07DX012 (ip), vehicle: alkali diluted with saline): 141 % of control
T/C (T/C endpoint: mean survival time, dose: 13.0 mg/kg/injection, schedule: Q01DX001 (ip), vehicle: alkali diluted with saline): 147 % of control
T/C (T/C endpoint: mean survival time, dose: 13.0 mg/kg/injection, schedule: Q04DX003 (ip), vehicle: alkali diluted with saline): 148 % of control
survivor count (T/C endpoint: mean survival time, dose: 13.5 mg/kg/injection, schedule: Q01DX Z (ip), vehicle: carboxymethylcellulose (CMC)): 6 of 6
T/C (T/C endpoint: mean survival time, dose: 14.0 mg/kg/injection, schedule: Q01DX001 (ip), vehicle: saline): 134, 140, 150, 163 % of control
T/C (T/C endpoint: mean survival time, dose: 14.0 mg/kg/injection, schedule: Q04DX002 (ip), vehicle: alkali diluted with saline): 159, 169, 197, 214 % of control
survivor count (T/C endpoint: mean survival time, dose: 16.0 mg/kg/injection, schedule: Q01DX Z (oral), vehicle: saline): 6 of 6
T/C (T/C endpoint: mean survival time, dose: 16.0 mg/kg/injection, schedule: Q## X024 (ip), vehicle: alkali diluted with saline): 131 % of control
T/C (T/C endpoint: mean survival time, dose: 18.0 mg/kg/injection, schedule: Q04DX004 (ip), vehicle: alkali diluted with saline): 138 % of control
T/C (T/C endpoint: mean survival time, dose: 18.0 mg/kg/injection, schedule: Q04DX006 (ip), vehicle: alkali diluted with saline): 141 % of control
T/C (T/C endpoint: mean survival time, dose: 18.0 mg/kg/injection, schedule: Q04DX008 (ip), vehicle: alkali diluted with saline): 132 % of control
T/C (T/C endpoint: mean survival time, dose: 18.0 mg/kg/injection, schedule: Q04DX010 (ip), vehicle: alkali diluted with saline): 129 % of control
T/C (T/C endpoint: mean survival time, dose: 18.0 mg/kg/injection, schedule: Q07DX004 (ip), vehicle: alkali diluted with saline): 149 % of control
T/C (T/C endpoint: mean survival time, dose: 18.0 mg/kg/injection, schedule: Q07DX008 (ip), vehicle: alkali diluted with saline): 143 and 145 % of control
T/C (T/C endpoint: mean survival time, dose: 18.0 mg/kg/injection, schedule: Q07DX010 (ip), vehicle: alkali diluted with saline): 142 % of control
T/C (T/C endpoint: mean survival time, dose: 18.0 mg/kg/injection, schedule: Q07DX012 (ip), vehicle: alkali diluted with saline): 142 % of control
T/C (T/C endpoint: mean survival time, dose: 27.0 mg/kg/injection, schedule: Q04DX002 (ip), vehicle: alkali diluted with saline): 117, 193, 197, 212 % of control
T/C (T/C endpoint: mean survival time, dose: 27.0 mg/kg/injection, schedule: Q04DX004 (ip), vehicle: alkali diluted with saline): 130 % of control
T/C (T/C endpoint: mean survival time, dose: 27.0 mg/kg/injection, schedule: Q04DX006 (ip), vehicle: alkali diluted with saline): 137 % of control
T/C (T/C endpoint: mean survival time, dose: 27.0 mg/kg/injection, schedule: Q04DX008 (ip), vehicle: alkali diluted with saline): 138 % of control
T/C (T/C endpoint: mean survival time, dose: 27.0 mg/kg/injection, schedule: Q04DX010 (ip), vehicle: alkali diluted with saline): 134 % of control
T/C (T/C endpoint: mean survival time, dose: 27.0 mg/kg/injection, schedule: Q07DX004 (ip), vehicle: alkali diluted with saline): 139 % of control
T/C (T/C endpoint: mean survival time, dose: 27.0 mg/kg/injection, schedule: Q07DX006 (ip), vehicle: alkali diluted with saline): 146 % of control
T/C (T/C endpoint: mean survival time, dose: 27.0 mg/kg/injection, schedule: Q07DX008 (ip), vehicle: alkali diluted with saline): 147 % of control
T/C (T/C endpoint: mean survival time, dose: 27.0 mg/kg/injection, schedule: Q07DX010 (ip), vehicle: alkali diluted with saline): 148 % of control
T/C (T/C endpoint: mean survival time, dose: 27.0 mg/kg/injection, schedule: Q07DX012 (ip), vehicle: alkali diluted with saline): 137 % of control
T/C (T/C endpoint: mean survival time, dose: 28.0 mg/kg/injection, schedule: Q01DX001 (ip), vehicle: saline): 156, 160 (2×), 180 % of control
T/C (T/C endpoint: mean survival time, dose: 36.0 mg/kg/injection, schedule: Q## X008 (ip), vehicle: alkali diluted with saline): 132 % of control
T/C (T/C endpoint: mean survival time, dose: 40.0 mg/kg/injection, schedule: Q04DX004 (ip), vehicle: alkali diluted with saline): 145 % of control
T/C (T/C endpoint: mean survival time, dose: 40.0 mg/kg/injection, schedule: Q07DX004 (ip), vehicle: alkali diluted with saline): 138 % of control
T/C (T/C endpoint: mean survival time, dose: 40.0 mg/kg/injection, schedule: Q07DX006 (ip), vehicle: alkali diluted with saline): 142 % of control
T/C (T/C endpoint: mean survival time, dose: 40.0 mg/kg/injection, schedule: Q07DX008 (ip), vehicle: alkali diluted with saline): 137 % of control
T/C (T/C endpoint: mean survival time, dose: 40.0 mg/kg/injection, schedule: Q07DX010 (ip), vehicle: alkali diluted with saline): 137 % of control
T/C (T/C endpoint: mean survival time, dose: 40.0 mg/kg/injection, schedule: Q07DX012 (ip), vehicle: alkali diluted with saline): 136 % of control
T/C (T/C endpoint: mean survival time, dose: 45.0 mg/kg/injection, schedule: Q01DX001 (ip), vehicle: alkali diluted with saline): 148 % of control
T/C (T/C endpoint: mean survival time, dose: 45.0 mg/kg/injection, schedule: Q04DX003 (ip), vehicle: alkali diluted with saline): 139 % of control
survivor count (T/C endpoint: mean survival time, dose: 48.0 mg/kg/injection, schedule: Q03DX006 (ip), vehicle: saline): 6 of 6
T/C (T/C endpoint: mean survival time, dose: 48.0 mg/kg/injection, schedule: Q07DX003 (ip), vehicle: saline): 147 % of control
T/C (T/C endpoint: mean survival time, dose: 53.0 mg/kg/injection, schedule: Q04DX002 (ip), vehicle: alkali diluted with saline): 132, 176, 200, 236 % of control
T/C (T/C endpoint: mean survival time, dose: 56.0 mg/kg/injection, schedule: Q01DX001 (ip), vehicle: saline): 135 and 145 % of control
T/C (T/C endpoint: mean survival time, dose: 60.0 mg/kg/injection, schedule: Q07DX006 (ip), vehicle: alkali diluted with saline): 146 % of control [8 of 10 alive]
T/C (T/C endpoint: mean survival time, dose: 60.0 mg/kg/injection, schedule: Q07DX008 (ip), vehicle: alkali diluted with saline): 135 % of control
T/C (T/C endpoint: mean survival time, dose: 60.0 mg/kg/injection, schedule: Q07DX010 (ip), vehicle: alkali diluted with saline): 145 % of control
T/C (T/C endpoint: mean survival time, dose: 67.5 mg/kg/injection, schedule: Q01DX001 (ip), vehicle: carboxymethylcellulose (CMC)): 126 % of control
survivor count (T/C endpoint: mean survival time, dose: 106.0 mg/kg/injection, schedule: Q04DX002 (ip), vehicle: alkali diluted with saline): 1 of 6
T/C (T/C endpoint: mean survival time, dose: 112.0 mg/kg/injection, schedule: Q01DX001 (ip), vehicle: saline): 140 and 145 % of control
survivor count (T/C endpoint: mean survival time, dose: 150.0 mg/kg/injection, schedule: Q08DX002 (ip), vehicle: alkali diluted with saline): 5 of 10
survivor count (T/C endpoint: mean survival time, dose: 180.0 mg/kg/injection, schedule: Q01DX001 (ip), vehicle: alkali diluted with saline): 1 of 10 and 3 of 10
T/C (T/C endpoint: mean survival time, dose: 224.0 mg/kg/injection, schedule: Q01DX001 (ip), vehicle: saline): 130 % of control
survivor count (T/C endpoint: mean survival time, dose: 225.0 mg/kg/injection, schedule: Q01DX001 (ip), vehicle: alkali diluted with saline): 5 of 10
survivor count (T/C endpoint: mean survival time, dose: 225.0 mg/kg/injection, schedule: Q08DX002 (ip), vehicle: alkali diluted with saline): 1 of 10
survivor count (T/C endpoint: mean survival time, dose: 400.0 mg/kg/injection, schedule: Q01DX001 (ip), vehicle: saline): 0 of 6
T/C (T/C endpoint: mean survival time, dose: 245.0 micrograms/kg/injection, schedule: Q01DX Z (ip), vehicle: carboxymethylcellulose (CMC)): 127 % of control
T/C (T/C endpoint: mean survival time, dose: 326.0 micrograms/kg/injection, schedule: Q01DX Z (ip), vehicle: carboxymethylcellulose (CMC)): 138 % of control
T/C (T/C endpoint: mean survival time, dose: 490.0 micrograms/kg/injection, schedule: Q01DX Z (ip), vehicle: carboxymethylcellulose (CMC)): 149 % of control
T/C (T/C endpoint: median survival time, dose: 2.0 mg/kg/injection, schedule: Q01DX009 (ip), vehicle: other): 138 % of control
T/C (T/C endpoint: median survival time, dose: 8.0 mg/kg/injection, schedule: Q01DX009 (ip), vehicle: other): 133 % of control
